# Test: Photo-decoloring ability (ultraviolet exposure through UGRA plate control wedge PCW 82)
# Conditions: step at which sample photo-decolored; UV exposure adjusted so that sample 4-1 decolors at the eighth step; higher is better
# From the text: The binder resin composition containing the photo-decoloring dye used for making sample 3-1 was coated on a polyethylenenaphthalate base having thickness of 4.0 μm by using a wire bar in a coating amount of 2.5 g/m^2 after drying so as to obtain a photo-recording material consisting of a photo-decoloring layer on the polyethylenenaphthalate film. On a back side of said polyethylenenaphthalate base was coated a nitrocellulose layer containing a silicone modified urethane resin (SP-2105, produced by Dainichiseika Co., Ltd.) as a sticking-preventing layer. Thus obtained sample is termed sample 4-1.
# By replacing the photo-decoloring dye 7 used in sample 4-1 by such photo-decoloring dyes as described later, sample 4-2 to 4-16 were obtained. Both photo-decoloring ability and storage stability of these dyes were evaluated.
# The above obtained photo-recording materials were exposed to ultraviolet rays by using UGRA plate control wedge PCW 82 (produced by Mika Electron Co., Ltd.). An exposed amount of ultraviolet rays was adjusted so that sample 4-1 photo-decolored at the eighth step. The same amount of ultraviolet rays was given to the other samples 4-2 to 4-16 and evaluation was carried out by counting the step where the samples photo-decolored. With higher step where the samples photo-decolor, the photo-recording materials are excellent in photo-decoloring ability.
row,Compound,Photo-decoloring ability
1,CCCCc1nnc2n1N=C(C(C)(C)C)C2=Nc1ccc(O)cc1 [A],9
2,CCCCc1nnc2c(=Cc3cc(Cl)c(O)c(Cl)c3)c(C(C)(C)C)nn12 [B],7
3,CCN(CC)c1ccc(N=C(C(C)=O)C(=O)Nc2ccccc2)c(C)c1 [C],3
4,CCN(CC)c1ccc(N=C2C(=O)N(c3ccccc3)N=C2C)cc1 [D],1
5,CCN(CC)c1ccc(N=C2C=CC(=O)c3ccccc32)cc1 [E],1
6,CN1C(=CC=CC2=[N+](C)c3ccccc3C2(C)C)C(C)(C)c2ccccc21 [F],5
7,CCCCCCCCCCCCS(=O)(=O)CCCc1nnc2n1N=C(C(C)(C)C)C2=Nc1cc(Cl)c(O)c(Cl)c1 [compound 7],8
8,CCC(Oc1ccc(C(C)(C)CC)cc1C(C)(C)CC)C(=O)NCCC(C)c1nnc2n1N=C(C(C)(C)C)C2=Nc1cc(Cl)c(O)c(Cl)c1 (centres unmarked) [compound 11],7
9,CCCCCCCCCCCCOc1ccc(S(=O)(=O)NCC(C)(C)c2nnc3n2N=C(C(C)(C)C)C3=Nc2cc(Cl)c(O)c(Cl)c2)cc1 [compound 13],7
10,CCCCCCCCCCCCC(Oc1ccc(OC(C)=O)c(C(C)(C)C)c1)C(=O)NCCc1nnc2n1N=C(C)C2=Nc1cc(Cl)c(O)c(Cl)c1 (centres unmarked) [compound 17],8
11,CCCCC(Oc1ccc(C(C)(C)CC)cc1C(C)(C)CC)C(=O)Nc1ccc2nc3n(c2c1)N=C(C)C3=Nc1cc(Cl)c(O)c(Cl)c1 (centres unmarked) [compound 32],6
12,CCC(C)(C)c1ccc(OCC(=O)Nc2ccnc(-c3cnc4n3N=C(C(C)(C)C)C4=Nc3cc(Cl)c(O)c(Cl)c3)c2)c(C(C)(C)CC)c1 [compound 33],8
13,CCCCCCCCCCCCS(=O)(=O)NCCc1nc2c(=Cc3cc(Cl)c(O)c(Cl)c3)c(C(C)(C)C)nn2n1 [compound 47],9
14,CCCCCCCCCCCCS(=O)(=O)CCCc1nnc2c(=Cc3cc(Cl)c(O)c(Cl)c3)c(C(C)(C)C)nn12 [compound 58],9
